The list shows a part of the results.
Legend:
Test in all cases: log2 fold change, soluble protein after heating vs DMSO (PISA); higher = thermal stabilisation; K562 cells, 10 uM, 30 min; active = over 0.2 and 3.5 SD of the protein, either way, in both replicates (recomputed)
zotarolimus = compound: CO[C@H]1C[C@@H]2CC[C@@H](C)[C@@](O)(O2)C(=O)C(=O)N2CCCC[C@H]2C(=O)O[C@H]([C@H](C)C[C@@H]2CC[C@H](n3cnnn3)[C@H](OC)C2)CC(=O)[C@H](C)/C=C(\C)[C@@H](O)[C@@H](OC)C(=O)[C@H](C)C[C@H](C)/C=C/C=C/C=C/1C [zotarolimus]
In short: (§1)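 Quantification of soluble protein used TMTpro 16plex LC-MS/MS, with channel sums equalised. Samples were the supernatant after 21,000xg for 90 min of pooled aliquots from K562 cells (2×10^6 cells/mL) treated with 10 μM compound for 30 min, heated for 3 min over 48°C-58°C, and extracted in PBS with 0.5% NP-40 at 4°C. Values, from duplicates, describe thermal stability against control samples on a log2 fold-change scale.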

The chains behind the UniProt entries cited, without tags or fusion partners. Where a name states a change or a piece, a line headed by the entry shows the natural chain unless it says otherwise.
UniProt Q9BV23: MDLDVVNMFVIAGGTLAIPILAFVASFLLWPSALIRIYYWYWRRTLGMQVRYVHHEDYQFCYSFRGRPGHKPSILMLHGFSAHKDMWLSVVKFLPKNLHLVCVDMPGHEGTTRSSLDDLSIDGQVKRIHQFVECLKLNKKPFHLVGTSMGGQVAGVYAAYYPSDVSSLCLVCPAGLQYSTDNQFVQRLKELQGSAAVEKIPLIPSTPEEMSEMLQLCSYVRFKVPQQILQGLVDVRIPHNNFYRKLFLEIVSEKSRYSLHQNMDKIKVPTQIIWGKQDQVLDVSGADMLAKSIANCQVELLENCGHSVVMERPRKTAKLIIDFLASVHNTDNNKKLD
UniProt Q96M93: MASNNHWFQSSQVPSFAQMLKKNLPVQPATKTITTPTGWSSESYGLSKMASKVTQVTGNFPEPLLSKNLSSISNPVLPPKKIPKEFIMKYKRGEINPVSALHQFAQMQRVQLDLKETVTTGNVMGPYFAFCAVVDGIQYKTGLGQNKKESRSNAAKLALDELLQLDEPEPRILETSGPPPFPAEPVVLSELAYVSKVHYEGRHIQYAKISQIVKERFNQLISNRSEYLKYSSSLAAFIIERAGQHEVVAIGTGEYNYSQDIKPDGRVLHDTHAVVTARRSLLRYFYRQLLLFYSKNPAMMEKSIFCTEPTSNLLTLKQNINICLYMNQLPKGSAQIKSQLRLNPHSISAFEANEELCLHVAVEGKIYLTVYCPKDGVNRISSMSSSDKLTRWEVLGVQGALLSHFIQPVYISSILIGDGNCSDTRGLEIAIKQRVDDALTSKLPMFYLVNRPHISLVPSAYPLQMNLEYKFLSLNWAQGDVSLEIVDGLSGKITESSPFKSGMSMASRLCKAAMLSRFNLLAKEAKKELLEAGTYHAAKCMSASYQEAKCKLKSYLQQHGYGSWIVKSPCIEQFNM
UniProt Q76LX8: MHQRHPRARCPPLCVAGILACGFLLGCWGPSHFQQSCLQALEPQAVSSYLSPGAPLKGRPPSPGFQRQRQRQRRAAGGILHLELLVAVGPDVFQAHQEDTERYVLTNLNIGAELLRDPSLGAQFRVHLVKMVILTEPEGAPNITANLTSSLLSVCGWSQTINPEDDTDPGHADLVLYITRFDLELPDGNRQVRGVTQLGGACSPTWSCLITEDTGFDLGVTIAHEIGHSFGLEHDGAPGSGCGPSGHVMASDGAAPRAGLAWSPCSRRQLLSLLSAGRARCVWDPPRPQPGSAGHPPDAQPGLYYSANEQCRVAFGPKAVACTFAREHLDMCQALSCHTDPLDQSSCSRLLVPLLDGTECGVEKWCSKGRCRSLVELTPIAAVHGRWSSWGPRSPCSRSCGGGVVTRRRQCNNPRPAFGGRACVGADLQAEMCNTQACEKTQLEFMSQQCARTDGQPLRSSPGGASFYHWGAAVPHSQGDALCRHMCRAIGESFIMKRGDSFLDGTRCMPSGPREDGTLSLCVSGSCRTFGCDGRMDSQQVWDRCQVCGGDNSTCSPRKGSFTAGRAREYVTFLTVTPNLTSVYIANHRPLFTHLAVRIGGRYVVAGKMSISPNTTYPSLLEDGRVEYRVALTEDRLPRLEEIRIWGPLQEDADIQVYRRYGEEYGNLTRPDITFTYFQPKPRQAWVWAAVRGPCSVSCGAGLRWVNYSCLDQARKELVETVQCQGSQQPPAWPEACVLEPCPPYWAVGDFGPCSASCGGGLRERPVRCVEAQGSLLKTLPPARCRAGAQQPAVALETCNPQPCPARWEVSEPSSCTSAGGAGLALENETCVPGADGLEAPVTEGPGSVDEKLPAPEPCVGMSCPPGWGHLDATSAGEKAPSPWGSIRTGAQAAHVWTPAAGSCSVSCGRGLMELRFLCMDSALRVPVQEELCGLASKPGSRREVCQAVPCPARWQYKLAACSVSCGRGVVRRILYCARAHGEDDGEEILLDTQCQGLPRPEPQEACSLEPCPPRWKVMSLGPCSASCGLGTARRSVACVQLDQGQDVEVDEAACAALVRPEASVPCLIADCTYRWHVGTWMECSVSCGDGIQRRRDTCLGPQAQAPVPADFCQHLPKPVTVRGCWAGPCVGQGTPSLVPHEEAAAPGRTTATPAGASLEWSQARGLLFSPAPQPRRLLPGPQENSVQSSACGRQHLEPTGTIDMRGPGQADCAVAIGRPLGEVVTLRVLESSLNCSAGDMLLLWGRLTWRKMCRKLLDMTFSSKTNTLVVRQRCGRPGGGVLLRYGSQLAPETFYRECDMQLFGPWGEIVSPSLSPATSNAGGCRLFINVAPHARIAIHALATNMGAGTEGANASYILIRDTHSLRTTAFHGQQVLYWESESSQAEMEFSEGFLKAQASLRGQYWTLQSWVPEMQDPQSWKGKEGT
UniProt Q8IZY2: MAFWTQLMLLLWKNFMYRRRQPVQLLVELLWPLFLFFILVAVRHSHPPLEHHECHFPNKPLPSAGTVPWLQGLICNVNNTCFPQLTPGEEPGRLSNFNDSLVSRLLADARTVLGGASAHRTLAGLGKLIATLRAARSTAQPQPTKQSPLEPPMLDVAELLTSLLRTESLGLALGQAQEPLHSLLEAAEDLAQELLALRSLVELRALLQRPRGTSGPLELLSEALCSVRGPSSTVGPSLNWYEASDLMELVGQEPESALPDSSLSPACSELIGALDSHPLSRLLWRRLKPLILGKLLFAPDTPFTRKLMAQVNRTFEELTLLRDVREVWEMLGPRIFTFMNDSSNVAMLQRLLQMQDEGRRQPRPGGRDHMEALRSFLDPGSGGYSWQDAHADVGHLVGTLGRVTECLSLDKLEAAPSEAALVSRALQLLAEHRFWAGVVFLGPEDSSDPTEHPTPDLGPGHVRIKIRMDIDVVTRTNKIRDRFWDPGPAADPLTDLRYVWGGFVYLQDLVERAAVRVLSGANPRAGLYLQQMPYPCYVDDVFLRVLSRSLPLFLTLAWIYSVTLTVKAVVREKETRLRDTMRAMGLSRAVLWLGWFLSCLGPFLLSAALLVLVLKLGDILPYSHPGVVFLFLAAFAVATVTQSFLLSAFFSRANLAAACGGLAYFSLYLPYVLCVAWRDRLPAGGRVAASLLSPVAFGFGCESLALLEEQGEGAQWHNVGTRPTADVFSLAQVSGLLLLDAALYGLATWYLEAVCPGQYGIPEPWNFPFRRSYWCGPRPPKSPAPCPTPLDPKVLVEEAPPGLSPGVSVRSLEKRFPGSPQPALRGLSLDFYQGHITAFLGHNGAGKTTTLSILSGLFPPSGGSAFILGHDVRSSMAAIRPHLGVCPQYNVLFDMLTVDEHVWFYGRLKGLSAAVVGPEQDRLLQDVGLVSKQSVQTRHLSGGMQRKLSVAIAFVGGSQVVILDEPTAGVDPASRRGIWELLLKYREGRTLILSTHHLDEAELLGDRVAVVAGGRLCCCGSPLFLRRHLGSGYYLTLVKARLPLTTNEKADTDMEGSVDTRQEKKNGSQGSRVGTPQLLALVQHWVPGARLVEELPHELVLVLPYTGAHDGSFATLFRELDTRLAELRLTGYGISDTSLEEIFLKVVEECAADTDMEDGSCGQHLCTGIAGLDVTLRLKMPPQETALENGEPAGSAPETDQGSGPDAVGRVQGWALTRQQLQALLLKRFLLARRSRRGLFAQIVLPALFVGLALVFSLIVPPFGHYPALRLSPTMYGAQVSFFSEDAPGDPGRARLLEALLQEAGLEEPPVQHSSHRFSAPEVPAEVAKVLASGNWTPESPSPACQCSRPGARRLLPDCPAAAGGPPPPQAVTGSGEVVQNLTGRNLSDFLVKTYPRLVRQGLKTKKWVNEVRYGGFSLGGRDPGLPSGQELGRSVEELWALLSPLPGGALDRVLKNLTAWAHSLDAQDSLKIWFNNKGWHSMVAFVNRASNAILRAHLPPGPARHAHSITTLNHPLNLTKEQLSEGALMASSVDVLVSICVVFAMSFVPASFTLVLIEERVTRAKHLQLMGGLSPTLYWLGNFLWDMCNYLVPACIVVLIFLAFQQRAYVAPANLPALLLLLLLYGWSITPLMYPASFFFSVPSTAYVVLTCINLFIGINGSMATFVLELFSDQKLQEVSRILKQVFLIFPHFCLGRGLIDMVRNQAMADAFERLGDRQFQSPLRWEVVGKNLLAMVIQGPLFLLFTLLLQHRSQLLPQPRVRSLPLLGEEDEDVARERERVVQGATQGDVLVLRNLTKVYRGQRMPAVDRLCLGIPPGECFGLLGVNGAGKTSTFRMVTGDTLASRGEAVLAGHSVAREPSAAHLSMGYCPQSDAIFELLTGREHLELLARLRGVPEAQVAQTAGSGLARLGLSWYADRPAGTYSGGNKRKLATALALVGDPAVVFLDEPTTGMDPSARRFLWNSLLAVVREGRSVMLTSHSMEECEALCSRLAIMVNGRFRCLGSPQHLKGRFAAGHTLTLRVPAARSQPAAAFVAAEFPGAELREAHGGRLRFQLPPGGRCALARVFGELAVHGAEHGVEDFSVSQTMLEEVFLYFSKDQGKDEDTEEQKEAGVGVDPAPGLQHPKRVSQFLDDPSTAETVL
UniProt Q04771: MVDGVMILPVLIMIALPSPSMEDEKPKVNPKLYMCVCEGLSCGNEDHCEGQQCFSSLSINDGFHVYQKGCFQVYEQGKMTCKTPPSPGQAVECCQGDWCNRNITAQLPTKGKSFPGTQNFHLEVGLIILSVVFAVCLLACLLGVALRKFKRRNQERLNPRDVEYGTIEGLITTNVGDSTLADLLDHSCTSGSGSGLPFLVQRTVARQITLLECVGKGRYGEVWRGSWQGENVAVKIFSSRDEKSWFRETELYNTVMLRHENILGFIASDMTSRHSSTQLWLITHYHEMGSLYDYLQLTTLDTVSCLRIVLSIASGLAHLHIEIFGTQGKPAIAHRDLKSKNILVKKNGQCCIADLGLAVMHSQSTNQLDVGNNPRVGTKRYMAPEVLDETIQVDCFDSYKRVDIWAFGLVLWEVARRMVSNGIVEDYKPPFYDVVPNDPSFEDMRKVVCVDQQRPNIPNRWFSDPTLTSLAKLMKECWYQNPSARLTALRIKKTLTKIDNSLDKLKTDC
UniProt Q8N6N7: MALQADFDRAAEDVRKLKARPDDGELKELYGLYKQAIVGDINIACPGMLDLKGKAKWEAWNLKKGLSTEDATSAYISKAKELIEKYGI
UniProt Q8NFV4: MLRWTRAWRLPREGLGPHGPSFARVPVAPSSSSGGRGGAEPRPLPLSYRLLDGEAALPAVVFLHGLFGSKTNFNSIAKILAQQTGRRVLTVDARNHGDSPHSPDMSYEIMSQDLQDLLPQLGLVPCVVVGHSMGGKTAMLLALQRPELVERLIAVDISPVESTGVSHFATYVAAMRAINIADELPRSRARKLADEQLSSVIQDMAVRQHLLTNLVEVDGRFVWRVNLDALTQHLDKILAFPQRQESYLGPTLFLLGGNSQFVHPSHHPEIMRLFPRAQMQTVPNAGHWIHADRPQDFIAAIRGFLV
UniProt Q9P1F3: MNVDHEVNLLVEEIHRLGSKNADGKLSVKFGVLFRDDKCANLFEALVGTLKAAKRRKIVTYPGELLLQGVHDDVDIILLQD
UniProt Q9BTE6: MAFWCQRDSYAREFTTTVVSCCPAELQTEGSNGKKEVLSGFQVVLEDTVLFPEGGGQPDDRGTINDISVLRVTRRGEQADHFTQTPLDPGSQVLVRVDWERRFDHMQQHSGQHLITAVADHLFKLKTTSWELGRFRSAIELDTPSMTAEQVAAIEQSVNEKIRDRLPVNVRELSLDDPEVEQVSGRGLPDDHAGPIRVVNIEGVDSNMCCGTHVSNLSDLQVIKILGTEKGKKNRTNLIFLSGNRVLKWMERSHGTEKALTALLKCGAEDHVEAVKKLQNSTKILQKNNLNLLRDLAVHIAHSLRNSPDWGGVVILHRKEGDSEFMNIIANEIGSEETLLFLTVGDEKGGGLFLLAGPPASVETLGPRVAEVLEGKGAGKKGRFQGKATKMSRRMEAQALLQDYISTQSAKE
UniProt Q9UKU0: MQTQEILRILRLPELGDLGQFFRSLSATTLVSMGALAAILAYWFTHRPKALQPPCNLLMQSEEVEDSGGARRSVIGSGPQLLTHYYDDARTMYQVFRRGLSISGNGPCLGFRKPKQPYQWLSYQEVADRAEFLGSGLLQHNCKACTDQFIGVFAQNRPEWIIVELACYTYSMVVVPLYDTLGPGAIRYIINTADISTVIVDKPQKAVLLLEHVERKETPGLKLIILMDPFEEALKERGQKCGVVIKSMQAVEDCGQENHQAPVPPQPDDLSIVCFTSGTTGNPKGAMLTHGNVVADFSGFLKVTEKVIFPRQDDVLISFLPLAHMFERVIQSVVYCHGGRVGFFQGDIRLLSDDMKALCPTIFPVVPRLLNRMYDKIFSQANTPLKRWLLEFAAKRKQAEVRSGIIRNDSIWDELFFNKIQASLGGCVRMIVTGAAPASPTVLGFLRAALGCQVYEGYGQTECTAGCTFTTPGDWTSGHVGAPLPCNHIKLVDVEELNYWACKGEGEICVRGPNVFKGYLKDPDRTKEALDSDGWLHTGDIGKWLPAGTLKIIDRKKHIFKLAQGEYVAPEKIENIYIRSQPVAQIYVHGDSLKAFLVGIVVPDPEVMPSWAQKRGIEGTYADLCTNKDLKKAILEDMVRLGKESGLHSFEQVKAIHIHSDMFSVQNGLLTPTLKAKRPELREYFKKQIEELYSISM

idasanutlin = compound: COc1cc(C(=O)O)ccc1NC(=O)[C@@H]1N[C@@H](CC(C)(C)C)[C@](C#N)(c2ccc(Cl)cc2F)[C@H]1c1cccc(Cl)c1F [idasanutlin]
In short: as §1

gefitinib = compound: COc1cc2ncnc(Nc3ccc(F)c(Cl)c3)c2cc1OCCCN1CCOCC1 [gefitinib]
In short: as §1

filanesib = compound: CON(C)C(=O)N1N=C(c2cc(F)ccc2F)S[C@@]1(CCCN)c1ccccc1 [filanesib]
In short: as §1

alisertib = compound: COc1cc(Nc2ncc3c(n2)-c2ccc(Cl)cc2C(c2c(F)cccc2OC)=NC3)ccc1C(=O)O [alisertib]
In short: as §1

[1] = compound: COc1cc2nc(-c3cc(F)ccc3O)nc(N[C@@H]3CNC[C@H]3C(C)(C)O)c2cc1OC
In short: as §1

[2] = compound: COc1cccc2cc(-c3nc([C@H]4CC[C@H](C(=O)O)CC4)n4ncnc(N)c34)[nH]c12
In short: as §1

lapatinib = compound: CS(=O)(=O)CCNCc1ccc(-c2ccc3ncnc(Nc4ccc(OCc5cccc(F)c5)c(Cl)c4)c3c2)o1 [lapatinib]
In short: as §1

pictilisib = compound: CS(=O)(=O)N1CCN(Cc2cc3nc(-c4cccc5[nH]ncc45)nc(N4CCOCC4)c3s2)CC1 [pictilisib]
In short: as §1

[3] = compound: COC1=CC=C(C=C1)CN2C=CC3=C2C=C(C=C3)C(=O)NO
In short: as §1

Target	log2 fold change (zotarolimus)	log2 fold change (idasanutlin)	log2 fold change (gefitinib)	log2 fold change (filanesib)	log2 fold change (alisertib)	log2 fold change [1]	log2 fold change [2]	log2 fold change (lapatinib)	log2 fold change (pictilisib)	log2 fold change [3]
ABCF1 (UniProt Q5STZ8)	inactive: -0.058	inactive: -0.146	inactive: 0.025							
ACAA2 (UniProt K7ER88)		inactive: 0.081	inactive: 0.061	inactive: 0.01	inactive: 0.057	inactive: -0.013	inactive: -0.504	inactive: -0.057		
ABCB11 (UniProt O95342)	inactive: 0.207			inactive: 0.062	inactive: 0.001	inactive: 0.289	inactive: -0.109	inactive: -0.134		
ABL1 isoform 2 (UniProt P00519)	inactive: 0.048	inactive: 0.165		inactive: 0.175	inactive: -0.105	inactive: 0.058	inactive: 0.051	inactive: 0.102	inactive: -0.02	
ABHD6 (UniProt Q9BV23)			inactive: 0.212	inactive: -0.253		inactive: -0.007		inactive: 0.676	inactive: 0.281	
ADAD1 (UniProt Q96M93)	inactive: -0.145		inactive: -0.013		inactive: -0.176		inactive: 0.07		inactive: 0.323	inactive: -0.198
ACOT7 (UniProt K7EKP8)		inactive: 0.084								
ACAD10 isoform 5 (UniProt Q6JQN1)		inactive: -0.231								
ADAMTS13 (UniProt Q76LX8)		inactive: 0.14		inactive: -0.014		inactive: 0.105		inactive: -0.098		
ACTBL2 (UniProt Q562R1)		inactive: 0.533	inactive: 0.348	inactive: 0.171	inactive: 0.521	inactive: -0.085	inactive: -0.105	inactive: -0.079	inactive: -0.541	
ABCC10 (UniProt Q5T3U5)		inactive: -0.238	inactive: -0.124	inactive: -0.024		inactive: 0.242		inactive: -0.118	inactive: 0.051	
ABCA7 (UniProt Q8IZY2)	inactive: -0.114	inactive: 0.209	inactive: -0.072	inactive: 0.043					inactive: 0.151	
ACTR3B (UniProt Q9P1U1)			inactive: -0.213			inactive: 0.022		inactive: -0.056	inactive: -0.021	active: 0.407
ACTG1 (UniProt I3L4N8)			inactive: 0.036		inactive: 1.55		inactive: 0.035			
ACVR1 (UniProt Q04771)	inactive: -0.371	inactive: -0.156		inactive: -0.022	inactive: -0.096	inactive: 0.133	inactive: -0.13	inactive: -0.004	inactive: 0.248	
ACBD7 (UniProt Q8N6N7)						inactive: 0.012		inactive: -0.289	inactive: 0.177	
ABHD11 (UniProt Q8NFV4)	inactive: 0.049	inactive: -0.058	inactive: -0.013		inactive: -0.002	inactive: 0.061	inactive: 0.076	inactive: -0.037	inactive: 0.024	inactive: -0.076
ABRACL (UniProt Q9P1F3)			inactive: -0.011	inactive: 0.052	inactive: 0.245		inactive: -0.017			inactive: 0.209
A2ML1 (UniProt A8K2U0)		inactive: 0.513	inactive: 0.059	inactive: 0.502	inactive: 0.486	inactive: 0.052	inactive: -0.056	inactive: -0.416		
AARSD1 (UniProt Q9BTE6)	inactive: 0.055	inactive: -0.071	inactive: 0.157		inactive: 0.08	inactive: 0.036	inactive: -0.016	inactive: 0.069		inactive: -0.659
ACSL6 isoform 1 (UniProt Q9UKU0)			inactive: 0.103	inactive: -0.054	inactive: -0.013		inactive: 0.123		inactive: 0.051	
ACCS (UniProt Q96QU6)	inactive: 0.017		inactive: 0.017		inactive: -0.263		inactive: 0.112		inactive: 0.036	
ABCB1 (UniProt P08183)	inactive: 0.035	inactive: 0.006			inactive: 0.554	inactive: 0.016	inactive: -0.055	inactive: -0.127		inactive: -0.083
AASDH (UniProt Q4L235)	inactive: -0.221		inactive: -0.143	inactive: -0.01	inactive: -0.141	inactive: 0.041	inactive: 0.207	inactive: 0.063	inactive: 0.093	inactive: -0.13
ACTB, A0A2R8YGF8					inactive: 2.67		inactive: 0.088			
ACSF2 isoform 2 (UniProt Q96CM8)									inactive: 0.238	
ACTN1 (UniProt H9KV75)	inactive: 0.154	inactive: -0.181	inactive: -0.07	inactive: -0.114	inactive: 0.155	inactive: 0.258	inactive: 0.02	inactive: -0.009		
ACTB, A0A2R8YEA7	inactive: -0.111	inactive: -0.165	inactive: -0.056	inactive: 0.445	inactive: 0		inactive: -0.026			

Copied from the list:
Value of ACTG1 (UniProt I3L4N8) under log2 fold change (alisertib): inactive: 1.55
Value of ACTB, A0A2R8YGF8 under log2 fold change (alisertib): inactive: 2.67

— the supplement of paper PMC10849652
